# The supplement of paper PMC12889115
# Some of the results follow. These are raw signals, not scaled to a control.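 First-pass screen: polymyxin B was added at a level that permeabilizes the Salmonella outer membrane while sparing the inner membrane. DMSO wells, with and without polymyxin B, defined maximum growth. Because plates differed from one another, each plate's data were ranked separately and the compounds with the lowest OD600 were carried forward as hits.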
# Tested on: Salmonella enterica serovar Typhimurium SL1344
# Test: bacterial growth OD600 after 18 h with compound and polymyxin B; higher = more bacterial growth (less inhibition)
# Conditions: 50 µM, Mueller-Hinton broth
SMILES,bacterial growth OD600 (polymyxin B 1 µg/mL),bacterial growth OD600 (polymyxin B 0.75 µg/mL)
CCOC(=O)C1CCN(Cc2cn(C)nc2-c2cccc(Cl)c2)CC1,0.962,
C=C(C)CNC(=O)C1CCCN(C2CCN(c3nc4ccccc4o3)CC2)C1 (stereo not drawn),,0.771
O=C(Nc1ccc2c(c1)CN(C(=O)c1ccc3c(c1)OCO3)CC2)c1ccccc1Cl,0.768,
CCN(CC1CCN(CCc2ccccc2C)CC1)C(=O)CCC(=O)OC,1.05,
Cc1ccccc1-c1cnc(-c2ccncc2)nc1C1CCCN(Cc2ccc(F)c(F)c2)C1 (stereo not drawn),,0.002
CN(C)c1ncc2c(n1)CCCC2NCc1ccccc1-c1ccco1 (stereo not drawn),0.787,
Cc1cc(C)n(CC(=O)NC2CC(C)(C)Cc3nc(N4CCOCC4)ncc32)n1 (stereo not drawn),,0.92
CC(=O)Nc1ccc(CN2CCC(c3cccc(F)c3)Sc3ccccc32)cc1 (stereo not drawn),,0.005
CN(C(=O)CC(c1ccccc1)c1ccc(Cl)cc1)C1CCOCC1 (stereo not drawn),0.17,
CCOC(=O)CCNC(=O)NC1CCCN(C2CCCCCC2)C1 (stereo not drawn),,0.86
COc1ccc(-c2nn(-c3ccccc3C)cc2CN2CCCO2)cc1F,0.005,
C=CCC(=O)N1CCCC(N2CCN(c3cccc(C(F)(F)F)c3)CC2)C1 (stereo not drawn),0.824,
CN(C)c1ncc2c(n1)CCCC2NC(=O)C1CC1 (stereo not drawn),,0.82
CC(=O)NCCNC(=O)CC(c1ccccc1)c1ccc2c(c1)OCO2 (stereo not drawn),,0.87
COC(=O)[C@@H](C)Nc1ccc(-c2nc(COc3ccccc3)no2)cn1,0.859,
CC(=O)c1cc(C(=O)N2CCCC(C(=O)c3cccc(C(F)(F)F)c3)C2)cs1 (stereo not drawn),0.853,
COC(=O)CCC(=O)N1CCc2[nH]nc(-c3ccc4c(c3)OCO4)c2C1,,0.847

# An excerpt of these results, bar-delimited:
SMILES | bacterial growth OD600 (polymyxin B 1 µg/mL) | bacterial growth OD600 (polymyxin B 0.75 µg/mL)
CN(C)c1ncc2c(n1)CCCC2NCc1ccccc1-c1ccco1 (stereo not drawn) | 0.787 | 
Cc1cc(C)n(CC(=O)NC2CC(C)(C)Cc3nc(N4CCOCC4)ncc32)n1 (stereo not drawn) |  | 0.92
CN(C(=O)CC(c1ccccc1)c1ccc(Cl)cc1)C1CCOCC1 (stereo not drawn) | 0.17 | 
CCOC(=O)CCNC(=O)NC1CCCN(C2CCCCCC2)C1 (stereo not drawn) |  | 0.86
C=CCC(=O)N1CCCC(N2CCN(c3cccc(C(F)(F)F)c3)CC2)C1 (stereo not drawn) | 0.824 | 
CN(C)c1ncc2c(n1)CCCC2NC(=O)C1CC1 (stereo not drawn) |  | 0.82
CC(=O)NCCNC(=O)CC(c1ccccc1)c1ccc2c(c1)OCO2 (stereo not drawn) |  | 0.87
COC(=O)[C@@H](C)Nc1ccc(-c2nc(COc3ccccc3)no2)cn1 | 0.859 | 

# (continued)

SMILES,bacterial growth OD600 (polymyxin B 1 µg/mL),bacterial growth OD600 (polymyxin B 0.75 µg/mL)
COc1cc(NC(=O)CCC2CCCN(C(=O)CC3=CCCCC3)C2)cc(OC)c1 (stereo not drawn),0.675,
Cc1cc2nc(N3CCC(N(C)Cc4ccco4)CC3)nc(C)c2cc1C,,0.83
O=C(C1CCOCC1)N1CCCC(CCc2ccccc2F)C1 (stereo not drawn),,0.749
O=C(Nc1cccs1)NC1CCCN(C2CCCCCC2)C1 (stereo not drawn),1.05,
Cc1noc(C)c1S(=O)(=O)NCc1cccnc1N1CCCCCCC1,0.752,
CC1(C)Cc2nc(C(C)(C)C)ncc2C(NS(=O)(=O)c2cccnc2)C1 (stereo not drawn),0.871,
C=CCC(=O)N1CCC2(CCCN(Cc3ccc(F)cc3)C2=O)C1 (stereo not drawn),1.05,
COCc1ccc(C(=O)Nc2ccc(-c3nc(CNC(=O)c4cc(C)on4)c(C)o3)cc2)o1,,0.781
CCN(CC)c1ccc(C(=O)N2CCCCC2CCn2cccn2)cn1 (stereo not drawn),0.004,
C=C(C)CN(C)CC1(O)CCCN(Cc2ccc(F)cc2)C1=O (stereo not drawn),0.999,
CCN1CCC(C(=O)NC2CCCN(C3CCCCCC3)C2)CC1 (stereo not drawn),0.836,
c1cc(C2CCCCC2)ccc1-c1cnnc(N2CCOCC2)n1,,-0.001
Cc1ccc(F)c(CNC(=O)C2CC(Cc3cccc(F)c3)=NO2)c1F (stereo not drawn),,0.637
COc1ccc(O)c(CN2CCC(C(Cc3ccccc3F)N(C)Cc3cn(C)nc3C)CC2)c1 (stereo not drawn),,0.86
O=C(c1ccc(-c2ccccc2)cc1)C1CCCN(Cc2cccnc2)C1 (stereo not drawn),0.068,
Cc1ccc2c(c1)CN(Cc1cc[nH]n1)CC(c1ccsc1)O2 (stereo not drawn),,0.895
